Experimental data as given in US20190218308A1.
Results are given in words; binding and its absence hold for the method and conditions named. Some binding calls cover weakened binding; strength is not graded here.

Target: T1, CD39 mutant 2B (human) (UniProt P49961)
T1 sequence: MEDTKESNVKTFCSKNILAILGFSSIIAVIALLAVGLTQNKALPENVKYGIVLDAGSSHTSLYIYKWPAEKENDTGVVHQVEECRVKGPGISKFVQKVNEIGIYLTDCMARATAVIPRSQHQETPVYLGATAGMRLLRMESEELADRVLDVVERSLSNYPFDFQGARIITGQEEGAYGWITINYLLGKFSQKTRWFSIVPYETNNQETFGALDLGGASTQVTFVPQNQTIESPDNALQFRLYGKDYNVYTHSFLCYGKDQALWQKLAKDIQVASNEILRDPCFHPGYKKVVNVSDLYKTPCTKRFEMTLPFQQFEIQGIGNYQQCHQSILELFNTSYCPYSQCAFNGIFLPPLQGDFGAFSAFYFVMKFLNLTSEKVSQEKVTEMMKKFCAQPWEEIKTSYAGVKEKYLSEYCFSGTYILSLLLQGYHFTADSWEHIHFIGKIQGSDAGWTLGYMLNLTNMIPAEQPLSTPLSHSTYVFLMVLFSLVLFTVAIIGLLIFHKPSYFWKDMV
Assay: flow cytometry, Hek-293T cells expressing mutant 2B

B1: antibody I-399 (antibody, V domains shown)
VH: PVQLQQPGAEVVMPGASVKLSCKASGYTFTSFWMNWMRQRPGQGLEWIGEIDPSDFYTNSNQRFKGKATLTVDKSSSTAYMQLSSLTSEDSAVYFCARGDFGWYFDVWGTGTSVTVSS
VL: EIVLTQSPTTMTSSPGEKITFTCSASSSINSNYLHWYQQKPGFSPKLLIYRTSNLASGVPTRFSGSGSGTSYSLTIGTMEAEDVATYYCQQGSSLPRTFGGGTKLEIK
B1 was tested, and the binding was “binds”.
